# Data taken from patent publication US10980233B2, “Oxadiazole compound and use thereof as pesticides” (Sumitomo Chemical Company, Limited, priority 2016, dated 2021).
# Read-outs that look alike come from different tables or passages of the source. Some entries share one result that the patent states for a list of compounds. For at least one compound, name, drawing or mass did not settle the structure.
# How the values were obtained:
# [1] = tested on: Puccinia recondita; assay: Test Example 12: Test for controlling rust on wheat; assay type: in vivo; conditions: 500 ppm foliar spray (Formulation example 6); inoculation five days after spraying; wheat cultivar Shirogane
# [2] = tested on: Cladosporium fulvum (QoI resistance strain); assay: Test Example 2: Test for controlling Cladosporium fulvum (microtiter plate growth); assay type: cell-based; conditions: QoI resistance strain (cytochrome b residue 129 phenylalanine to leucine); 1500 ppm in dimethyl sulfoxide, 1 μL per well + 150 μL PDB medium; 18° C., five days; absorbance at 550 nm
# [3] = tested on: Magnaporthe grisea; assay type: in vivo; conditions: 500 ppm foliar spray (Formulation example 6); six days in contact with infected rice seedlings; rice cultivar Hinohikari
# [4] = tested on: Puccinia recondita; assay: Test Example 7: Test for controlling rust on wheat; assay type: in vivo; conditions: 200 ppm foliar spray (Formulation example 6); inoculation five days after spraying; wheat cultivar Shirogane
# [5] = tested on: cabbage moth (Plutella xylostella); assay: Test Example 16: mortality of cabbage moth on sprayed cabbage seedlings; assay type: in vivo; conditions: 500 ppm foliar spray on cabbage seedlings (Formulation example 6); five second instar larvae; counted after five days
# [6] = tested on: Magnaporthe grisea; assay type: in vivo; conditions: 200 ppm foliar spray (Formulation example 6); six days in contact with infected rice seedlings; rice cultivar Hinohikari
# [7] = tested on: Phakopsora pachyrhizi; assay: Test Example 5: Test for controlling soybean rust on soybean (spray before inoculation); assay type: in vivo; conditions: 200 ppm foliar spray (Formulation example 6); inoculation four days after the application; soybean cultivar Kurosengoku
# [8] = tested on: Phakopsora pachyrhizi; assay: Test Example 4: Test for controlling soybean rust on soybean (spray after inoculation); assay type: in vivo; conditions: 200 ppm foliar spray (Formulation example 6) three days after inoculation; soybean cultivar Kurosengoku; examined after eight days
Compound,lesion area as compared to the lesion area in the untreated group of wheat [1],degree of growth of Cladosporium fulvum as compared to the degree of growth in the untreated group [2],lesion area as compared to the lesion area in the untreated group of wheat [4],other results
N#CCON=Cc1ccc(-c2noc(C(F)(F)F)n2)cc1 [compound 6],≤ 30%,≤ 50%,–,–
ON=Cc1ccc(-c2noc(C(F)(F)F)n2)cc1 [compound 1],–,≤ 50%,–,–
CN(Cc1ccccc1)C(=NO)c1ccc(-c2noc(C(F)(F)F)n2)cc1 [compound 34],≤ 30%,≤ 50%,≤ 30%,lesion area as compared to the lesion area in the untreated group of rice [3]: ≤ 30%
CC(C)NC(=NO)c1ccc(-c2noc(C(F)(F)F)n2)cc1 [compound 28],≤ 30%,–,≤ 30%,lesion area as compared to the lesion area in the untreated group of rice [3]: ≤ 30%
NC(=NO)c1ccc(-c2noc(C(F)(F)F)n2)cc1 [compound 2],–,≤ 50%,≤ 30%,lesion area as compared to the lesion area in the untreated group of rice [3]: ≤ 30%
CN(C)C(=NO)c1ccc(-c2noc(C(F)(F)F)n2)cc1 [compound 20],≤ 30%,≤ 50%,–,–
N#CC(=NO)c1ccc(-c2noc(C(F)(F)F)n2)cc1 [compound 21],≤ 30%,≤ 50%,–,mortality of insects [5]: ≥ 80%
ON=C(c1ccc(-c2noc(C(F)(F)F)n2)cc1)N1CCOCC1 [compound 37],≤ 30%,–,–,–
COCCNC(=NO)c1ccc(-c2noc(C(F)(F)F)n2)cc1 [compound 31],≤ 30%,–,≤ 30%,–
ON=C(NCc1ccccc1)c1ccc(-c2noc(C(F)(F)F)n2)cc1 [compound 30],≤ 30%,≤ 50%,≤ 30%,–
CC(=NO)c1ccc(-c2noc(C(F)(F)F)n2)cc1 [compound 23],≤ 30%,≤ 50%,–,–
CCCON=Cc1ccc(-c2noc(C(F)(F)F)n2)cc1 [compound 5],–,≤ 50%,–,–
CON=C(N)c1ccc(-c2noc(C(F)(F)F)n2)cc1 [compound 10],–,–,≤ 30%,–
ON=C(NCc1cccnc1)c1ccc(-c2noc(C(F)(F)F)n2)cc1 [compound 35],≤ 30%,≤ 50%,≤ 30%,lesion area as compared to the lesion area in the untreated group of rice [6]: ≤ 30%
ON=C(c1ccc(-c2noc(C(F)(F)F)n2)cc1)N1CCCC1 [compound 36],≤ 30%,–,≤ 30%,lesion area as compared to the lesion area in the untreated group of rice [3]: ≤ 30%
N#CCON=C(C#N)c1ccc(-c2noc(C(F)(F)F)n2)cc1 [compound 17],–,–,≤ 30%,–
ON=C(c1ccccc1)c1ccc(-c2noc(C(F)(F)F)n2)cc1 [compound 24],≤ 30%,≤ 50%,≤ 30%,–
CN(C(=NO)c1ccc(-c2noc(C(F)(F)F)n2)cc1)c1ccccc1 [compound 33],–,≤ 50%,≤ 30%,–
N#CCON=C(N)c1ccc(-c2noc(C(F)(F)F)n2)cc1 [compound 11],–,–,–,lesion area as compared to the lesion area in the untreated group of rice [6]: ≤ 30%
CCN(C)C(=NO)c1ccc(-c2noc(C(F)(F)F)n2)cc1 [compound 32],≤ 30%,–,≤ 30%,lesion area as compared to the lesion area in the untreated group of rice [3]: ≤ 30%; lesion area as compared to the lesion area in the untreated group of rice [6]: ≤ 30%
CCCNC(=NO)c1ccc(-c2noc(C(F)(F)F)n2)cc1 [compound 27],≤ 30%,–,–,–
COC(=NO)c1ccc(-c2noc(C(F)(F)F)n2)cc1 [compound 22],≤ 30%,–,–,–
CCNC(=NO)c1ccc(-c2noc(C(F)(F)F)n2)cc1 [compound 26],≤ 30%,–,≤ 30%,lesion area as compared to the lesion area in the untreated group of rice [3]: ≤ 30%; lesion area as compared to the lesion area in the untreated group of rice [6]: ≤ 30%
ON=C(NC1CC1)c1ccc(-c2noc(C(F)(F)F)n2)cc1 [compound 29],≤ 30%,–,≤ 30%,lesion area as compared to the lesion area in the untreated group of rice [3]: ≤ 30%; mortality of insects [5]: ≥ 80%
CSC(=NO)c1ccc(-c2noc(C(F)(F)F)n2)cc1 [compound 38],≤ 30%,≤ 50%,≤ 30%,lesion area as compared to the lesion area in the untreated group of rice [3]: ≤ 30%; lesion area as compared to the lesion area in the untreated group of rice [6]: ≤ 30%
ON=Cc1cccc(-c2noc(C(F)(F)F)n2)c1 [compound 25],–,≤ 50%,–,–
CCN(C)C(=O)ON=Cc1ccc(-c2noc(C(F)(F)F)n2)cc1 [compound 9],–,–,–,lesion area as compared to the lesion area in the untreated group of soybeans [7]: ≤ 30%; lesion area as compared to the lesion area in the untreated group of soybeans [8]: ≤ 30%
CNC(=NO)c1ccc(-c2noc(C(F)(F)F)n2)cc1 [compound 19],≤ 30%,–,–,mortality of insects [5]: ≥ 80%
